The test system of the data set is D54 cells. Put plainly: Membrane capacitance and cell size after buffer incubation. Type of data set: cell-based. The settings on record: 6 hours.

Turning to `C[C@@H](N)[C@H]1CC[C@H](C(=O)Nc2ccncc2)CC1` [ROCKi, Y27632], the membrane capacitance entry (1 μM ROCKi in DEP buffer, vs control cells in media for 0 hours) is reported as “decreased membrane capacitance”. For the same compound, under “5 μM ROCKi in DEP buffer”, the cell size result is reported as “did not change” and the membrane capacitance entry is “did not change”.

(Values after patent US20240033737A1, “DEVICES AND METHODS FOR CONTINUOUS DIELECTROPHORESIS CELL SORTING TO ISOLATE DIFFERENT POPULATIONS OF CELLS, AND APPLICATIONS THEREOF” (The Regents of the University of California, priority 2022, published 2024).)
